Laboratory results as given in the supplement of paper PMC10849652.
The list shows a part of the results.

Amino acid sequences for entries named in this document (tags omitted). A change or cut given only in a name is not applied to a line headed by its entry.
UniProt Q96MG8: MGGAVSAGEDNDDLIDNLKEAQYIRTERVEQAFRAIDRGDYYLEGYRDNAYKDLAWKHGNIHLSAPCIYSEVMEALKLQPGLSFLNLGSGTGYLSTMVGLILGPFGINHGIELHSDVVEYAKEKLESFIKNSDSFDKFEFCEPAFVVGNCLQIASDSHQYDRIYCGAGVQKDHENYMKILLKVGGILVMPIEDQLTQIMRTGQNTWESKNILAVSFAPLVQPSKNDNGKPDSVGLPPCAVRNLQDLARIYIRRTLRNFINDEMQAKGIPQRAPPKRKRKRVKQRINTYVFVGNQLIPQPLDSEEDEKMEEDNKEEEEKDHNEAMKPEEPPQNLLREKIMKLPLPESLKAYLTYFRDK
UniProt Q16342: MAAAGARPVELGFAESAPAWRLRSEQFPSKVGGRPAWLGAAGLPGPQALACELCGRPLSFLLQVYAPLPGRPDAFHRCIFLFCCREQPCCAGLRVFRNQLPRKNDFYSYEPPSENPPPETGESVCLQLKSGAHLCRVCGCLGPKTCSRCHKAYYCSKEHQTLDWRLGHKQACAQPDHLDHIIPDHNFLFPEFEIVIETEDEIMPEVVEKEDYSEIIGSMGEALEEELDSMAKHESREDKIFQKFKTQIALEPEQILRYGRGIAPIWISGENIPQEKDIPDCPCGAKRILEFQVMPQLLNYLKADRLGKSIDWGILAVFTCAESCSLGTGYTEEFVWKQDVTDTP
UniProt Q86SE9: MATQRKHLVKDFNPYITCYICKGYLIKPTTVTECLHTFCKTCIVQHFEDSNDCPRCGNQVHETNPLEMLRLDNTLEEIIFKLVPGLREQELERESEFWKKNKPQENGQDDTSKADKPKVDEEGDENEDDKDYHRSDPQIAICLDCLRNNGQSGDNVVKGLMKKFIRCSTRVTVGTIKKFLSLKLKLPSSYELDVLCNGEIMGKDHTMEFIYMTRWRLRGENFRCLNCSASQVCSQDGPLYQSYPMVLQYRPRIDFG
UniProt Q9UBM1: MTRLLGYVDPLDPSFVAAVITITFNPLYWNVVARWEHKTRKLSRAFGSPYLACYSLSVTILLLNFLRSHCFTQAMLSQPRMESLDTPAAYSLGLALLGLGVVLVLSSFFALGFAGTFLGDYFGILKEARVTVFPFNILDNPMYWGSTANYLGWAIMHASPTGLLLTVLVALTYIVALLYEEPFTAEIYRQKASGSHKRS
UniProt Q58A45: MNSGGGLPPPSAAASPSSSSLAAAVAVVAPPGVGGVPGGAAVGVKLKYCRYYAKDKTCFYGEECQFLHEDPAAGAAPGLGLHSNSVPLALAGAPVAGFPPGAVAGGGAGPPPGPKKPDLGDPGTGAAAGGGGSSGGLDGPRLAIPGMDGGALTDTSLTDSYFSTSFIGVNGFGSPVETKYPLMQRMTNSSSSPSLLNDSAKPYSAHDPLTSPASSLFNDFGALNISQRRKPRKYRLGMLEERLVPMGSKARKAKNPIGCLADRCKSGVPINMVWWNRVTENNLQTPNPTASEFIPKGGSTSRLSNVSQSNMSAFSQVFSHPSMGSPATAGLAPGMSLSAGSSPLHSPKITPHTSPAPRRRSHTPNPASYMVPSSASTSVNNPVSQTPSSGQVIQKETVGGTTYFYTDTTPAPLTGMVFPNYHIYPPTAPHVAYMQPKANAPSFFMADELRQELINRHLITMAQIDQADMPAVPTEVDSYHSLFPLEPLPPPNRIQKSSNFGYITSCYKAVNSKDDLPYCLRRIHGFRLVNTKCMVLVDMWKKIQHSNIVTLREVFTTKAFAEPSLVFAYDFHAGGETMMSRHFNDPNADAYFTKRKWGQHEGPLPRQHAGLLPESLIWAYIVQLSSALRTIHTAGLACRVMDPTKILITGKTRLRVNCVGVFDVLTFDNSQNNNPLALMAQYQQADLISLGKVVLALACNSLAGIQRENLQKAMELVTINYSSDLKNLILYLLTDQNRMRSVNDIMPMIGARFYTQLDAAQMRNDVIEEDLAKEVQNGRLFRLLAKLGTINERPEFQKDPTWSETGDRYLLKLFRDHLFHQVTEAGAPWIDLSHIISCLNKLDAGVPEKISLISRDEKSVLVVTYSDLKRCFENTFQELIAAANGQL
UniProt O60683: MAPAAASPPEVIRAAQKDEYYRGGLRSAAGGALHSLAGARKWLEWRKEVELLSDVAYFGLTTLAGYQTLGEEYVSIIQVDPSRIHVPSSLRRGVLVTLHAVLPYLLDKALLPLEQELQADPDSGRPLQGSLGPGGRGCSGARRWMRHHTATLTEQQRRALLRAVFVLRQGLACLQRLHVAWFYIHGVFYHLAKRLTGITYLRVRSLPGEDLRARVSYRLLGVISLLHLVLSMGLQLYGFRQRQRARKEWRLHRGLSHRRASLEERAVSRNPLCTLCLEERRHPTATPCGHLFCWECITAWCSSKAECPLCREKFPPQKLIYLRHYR
UniProt O00408, whole entry, looked up: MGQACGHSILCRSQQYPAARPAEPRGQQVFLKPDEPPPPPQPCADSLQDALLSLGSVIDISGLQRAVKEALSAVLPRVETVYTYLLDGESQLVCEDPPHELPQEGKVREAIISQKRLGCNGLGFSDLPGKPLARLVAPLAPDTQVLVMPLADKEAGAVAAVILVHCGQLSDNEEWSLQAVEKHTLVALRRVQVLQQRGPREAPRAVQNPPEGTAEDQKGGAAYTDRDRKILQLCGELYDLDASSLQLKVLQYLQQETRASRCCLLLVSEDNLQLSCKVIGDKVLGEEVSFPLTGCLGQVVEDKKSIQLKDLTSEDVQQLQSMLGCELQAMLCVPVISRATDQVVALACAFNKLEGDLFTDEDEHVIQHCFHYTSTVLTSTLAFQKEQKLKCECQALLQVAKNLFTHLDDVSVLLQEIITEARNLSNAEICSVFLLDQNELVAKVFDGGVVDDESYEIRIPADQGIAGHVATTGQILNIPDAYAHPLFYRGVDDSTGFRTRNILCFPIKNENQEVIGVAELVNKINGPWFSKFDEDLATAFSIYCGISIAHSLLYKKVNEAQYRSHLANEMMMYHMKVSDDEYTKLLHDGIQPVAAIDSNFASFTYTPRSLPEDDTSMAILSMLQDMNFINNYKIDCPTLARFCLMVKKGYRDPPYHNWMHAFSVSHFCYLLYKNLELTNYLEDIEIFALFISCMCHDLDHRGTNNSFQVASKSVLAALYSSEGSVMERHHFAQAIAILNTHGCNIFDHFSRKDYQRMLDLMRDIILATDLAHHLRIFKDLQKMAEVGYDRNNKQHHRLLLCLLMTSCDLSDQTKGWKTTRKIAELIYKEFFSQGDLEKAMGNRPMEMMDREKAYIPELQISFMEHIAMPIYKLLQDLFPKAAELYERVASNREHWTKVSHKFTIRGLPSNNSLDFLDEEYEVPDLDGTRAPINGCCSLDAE
UniProt Q96RV3: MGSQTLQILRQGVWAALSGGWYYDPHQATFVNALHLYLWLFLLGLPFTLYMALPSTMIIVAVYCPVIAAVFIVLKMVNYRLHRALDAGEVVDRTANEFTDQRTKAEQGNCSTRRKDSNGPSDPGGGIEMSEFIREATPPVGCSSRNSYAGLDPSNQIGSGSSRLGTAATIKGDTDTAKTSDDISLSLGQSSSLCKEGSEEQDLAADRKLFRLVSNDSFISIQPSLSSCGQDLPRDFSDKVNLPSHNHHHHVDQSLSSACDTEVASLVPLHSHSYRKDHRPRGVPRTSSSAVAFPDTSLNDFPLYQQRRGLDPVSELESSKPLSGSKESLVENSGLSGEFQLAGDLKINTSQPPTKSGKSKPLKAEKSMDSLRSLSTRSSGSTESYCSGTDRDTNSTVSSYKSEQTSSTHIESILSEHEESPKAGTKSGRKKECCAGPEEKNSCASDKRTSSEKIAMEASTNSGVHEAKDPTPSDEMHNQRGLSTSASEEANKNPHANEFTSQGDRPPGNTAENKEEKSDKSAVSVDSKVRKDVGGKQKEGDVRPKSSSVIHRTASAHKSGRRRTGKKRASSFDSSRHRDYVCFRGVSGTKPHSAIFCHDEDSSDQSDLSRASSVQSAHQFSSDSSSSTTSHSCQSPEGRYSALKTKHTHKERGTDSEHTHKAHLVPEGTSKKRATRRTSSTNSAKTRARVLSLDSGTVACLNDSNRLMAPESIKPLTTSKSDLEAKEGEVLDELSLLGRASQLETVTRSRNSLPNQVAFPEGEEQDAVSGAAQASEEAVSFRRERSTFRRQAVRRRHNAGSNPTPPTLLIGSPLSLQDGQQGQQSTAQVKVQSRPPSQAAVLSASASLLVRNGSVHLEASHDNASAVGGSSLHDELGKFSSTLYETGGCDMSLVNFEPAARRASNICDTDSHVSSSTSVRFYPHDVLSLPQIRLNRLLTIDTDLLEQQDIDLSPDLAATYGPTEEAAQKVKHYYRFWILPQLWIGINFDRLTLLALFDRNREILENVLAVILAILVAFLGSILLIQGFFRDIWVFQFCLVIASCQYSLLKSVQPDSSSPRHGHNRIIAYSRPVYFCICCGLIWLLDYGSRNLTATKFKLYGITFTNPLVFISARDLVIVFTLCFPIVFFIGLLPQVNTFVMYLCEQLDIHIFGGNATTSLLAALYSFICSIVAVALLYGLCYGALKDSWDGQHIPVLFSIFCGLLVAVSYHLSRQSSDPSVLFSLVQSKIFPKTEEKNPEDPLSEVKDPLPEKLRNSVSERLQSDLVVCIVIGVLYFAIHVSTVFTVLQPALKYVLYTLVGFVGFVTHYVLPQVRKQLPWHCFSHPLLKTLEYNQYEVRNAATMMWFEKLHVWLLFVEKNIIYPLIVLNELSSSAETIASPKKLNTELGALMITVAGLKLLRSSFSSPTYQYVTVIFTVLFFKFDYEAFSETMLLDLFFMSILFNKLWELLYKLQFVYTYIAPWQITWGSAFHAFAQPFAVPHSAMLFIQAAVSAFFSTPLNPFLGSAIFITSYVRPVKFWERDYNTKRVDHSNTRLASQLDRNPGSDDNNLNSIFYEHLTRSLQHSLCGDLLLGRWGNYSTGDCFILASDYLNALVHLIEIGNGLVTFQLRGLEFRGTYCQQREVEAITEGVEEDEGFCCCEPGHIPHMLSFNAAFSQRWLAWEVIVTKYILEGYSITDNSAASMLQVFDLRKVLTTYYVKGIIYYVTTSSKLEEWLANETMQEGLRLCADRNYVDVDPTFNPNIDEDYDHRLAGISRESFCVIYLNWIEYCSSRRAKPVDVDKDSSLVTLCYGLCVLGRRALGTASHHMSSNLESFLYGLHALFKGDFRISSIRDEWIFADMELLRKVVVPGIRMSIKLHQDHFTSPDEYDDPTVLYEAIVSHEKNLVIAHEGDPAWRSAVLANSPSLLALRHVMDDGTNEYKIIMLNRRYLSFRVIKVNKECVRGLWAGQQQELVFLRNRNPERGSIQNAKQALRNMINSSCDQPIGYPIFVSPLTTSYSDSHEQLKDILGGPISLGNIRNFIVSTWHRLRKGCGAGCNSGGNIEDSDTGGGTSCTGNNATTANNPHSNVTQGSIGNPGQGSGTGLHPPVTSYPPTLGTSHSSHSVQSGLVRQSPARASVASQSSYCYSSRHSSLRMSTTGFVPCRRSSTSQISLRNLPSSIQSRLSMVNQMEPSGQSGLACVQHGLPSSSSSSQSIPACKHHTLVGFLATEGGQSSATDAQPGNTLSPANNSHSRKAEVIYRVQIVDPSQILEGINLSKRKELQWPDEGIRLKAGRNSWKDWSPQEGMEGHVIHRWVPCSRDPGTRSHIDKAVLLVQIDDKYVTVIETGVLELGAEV
UniProt Q7Z2X7: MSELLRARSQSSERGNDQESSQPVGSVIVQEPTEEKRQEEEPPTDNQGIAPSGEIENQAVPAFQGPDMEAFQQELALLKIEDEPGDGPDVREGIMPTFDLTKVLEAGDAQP
UniProt Q16549: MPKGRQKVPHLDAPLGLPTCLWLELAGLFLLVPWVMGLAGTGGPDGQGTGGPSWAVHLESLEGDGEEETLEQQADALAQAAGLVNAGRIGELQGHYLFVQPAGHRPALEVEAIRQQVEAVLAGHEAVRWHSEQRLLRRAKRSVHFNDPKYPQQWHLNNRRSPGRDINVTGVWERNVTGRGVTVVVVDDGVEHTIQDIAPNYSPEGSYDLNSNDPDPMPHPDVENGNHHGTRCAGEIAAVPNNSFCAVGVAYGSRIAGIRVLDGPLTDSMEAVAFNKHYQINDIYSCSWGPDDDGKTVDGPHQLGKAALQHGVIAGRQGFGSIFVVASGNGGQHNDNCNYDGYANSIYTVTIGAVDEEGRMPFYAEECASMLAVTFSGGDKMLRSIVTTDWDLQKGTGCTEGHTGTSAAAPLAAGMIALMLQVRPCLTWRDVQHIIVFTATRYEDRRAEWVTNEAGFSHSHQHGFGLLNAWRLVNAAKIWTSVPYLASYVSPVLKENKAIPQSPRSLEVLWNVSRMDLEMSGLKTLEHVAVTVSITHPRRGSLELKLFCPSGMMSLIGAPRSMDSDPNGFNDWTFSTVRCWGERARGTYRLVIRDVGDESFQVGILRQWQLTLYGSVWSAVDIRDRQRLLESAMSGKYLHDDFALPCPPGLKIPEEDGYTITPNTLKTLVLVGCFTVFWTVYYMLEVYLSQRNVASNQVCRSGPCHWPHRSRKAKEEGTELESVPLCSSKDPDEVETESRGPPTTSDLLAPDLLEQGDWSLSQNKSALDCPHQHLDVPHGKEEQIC

Legend:
Experiment in all cases: log2 fold change, soluble protein after heating vs DMSO (PISA); higher = thermal stabilisation; K562 cells, 10 uM, 30 min; active = over 0.2 and 3.5 SD of the protein, either way, in both replicates (recomputed)
[1] = compound: C/C(=N\NC(=O)C1=CC(=CC=C1)S(=O)(=O)N2CCOCC2)/C3=C(C=CC(=C3)Cl)O
How it was run: (§1)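 K562 cells at 2×10^6 cells/mL were treated for 30 min with 10 μM compound, and aliquots were heated for 3 min over 48°C-58°C before pooling. Extraction used PBS with 0.5% NP-40 at 4°C, and soluble protein was the supernatant after 21,000xg for 90 min, measured by TMTpro 16plex LC-MS/MS with channel sums equalised. Thermal stability values, relative to control samples and from duplicates, are log2 fold changes.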

[2] = compound: C1=CC2=C(C=CC(=C2)/C=C\3/C(=O)NC(=NCC4=CC=CS4)S3)N=C1
How it was run: as §1

[3] = compound: C1=CC2=NC=CN=C2C=C1/C=C/3\C(=O)NC(=O)S3
How it was run: as §1

[4] = compound: C1=CC=C2C(=C1)C3=NNC4=CC=CC(=C43)C2=O
How it was run: as §1

[5] = compound: C1=CC(=C(C=C1Cl)C2=NC3=NC=CN=C3C(=N2)NC4=CC=NC=C4)F
How it was run: as §1

[6] = compound: C1=CC=C(C=C1)C2=NC(=C(N2)C3=CC=NC=C3)C4=CC(=C(C=C4)Cl)O
How it was run: as §1

erlotinib = compound: C#Cc1cccc(Nc2ncnc3cc(OCCOC)c(OCCOC)cc23)c1 [erlotinib]
How it was run: as §1

[7] = compound: C1=CC(=CC=C1C2=NC3=C(N2)C=C(C=C3)C(=O)N)OC4=CC=C(C=C4)Cl
How it was run: as §1

[8] = compound: C1CCN(C1)C(=O)NC2=CC=CC(=C2)NC3=NC=C(C(=N3)NCCC4=CN=CN4)Br
How it was run: as §1

[9] = compound: C1CN(CCC1(CC2=CC=C(C=C2)Cl)N)C3=NC=NC4=C3C=CN4
How it was run: as §1

Measured: log2 fold change

PCSK6 isoform 7 (UniProt P29122)
inactive: [1] -0.227 | [2] 0.234 | [3] 0.06 | [4] -0.017

PCMTD1 (UniProt Q96MG8)
inactive: [5] -0.14 | [3] 0.21 | [6] 0.08

PCBP2 (UniProt F8VZX2)
inactive: erlotinib -0.014 | [7] -0.077 | [3] -0.019 | [6] -0.008

PCID2 (UniProt Q5JVF3)
inactive: erlotinib 0.086 | [5] -0.088 | [7] -0.021 | [3] 0.028 | [6] -0.005 | [8] -0.086 | [9] -0.161

PDCD2 (UniProt Q16342)
inactive: [5] -0.135 | [3] -0.108 | [8] -0.021 | [9] -0.118

PCGF5 (UniProt Q86SE9)
inactive: [5] -0.037 | [3] -0.219 | [6] -0.1

PCDH1 isoform 2 (UniProt Q08174)
inactive: [8] 0.023 | [9] 0.191

PEMT isoform 2 (UniProt Q9UBM1)
inactive: erlotinib -0.087 | [7] 0.021 | [8] -0.189 | [9] 0.031

PDIA4, A0A499FI48
inactive: [1] 0.128 | [2] -0.066 | [6] -0.1 | [4] 0.124 | [8] 0.262 | [9] -0.154

PDPK1 (UniProt O15530)
inactive: erlotinib 0.02 | [1] 0.083 | [5] 0.026 | [7] 0.064 | [2] 0.068 | [3] -0.029 | [6] 0.045 | [4] 0.007 | [8] 0.087 | [9] 0.028

PAN3 (UniProt Q58A45)
inactive: [6] 0.128

PDP1 isoform 2 (UniProt Q9P0J1)
inactive: [3] -0.261

PACC1 (UniProt Q9H813)
inactive: [1] 0.039 | [5] 0.121 | [2] 0.138 | [3] -0.002 | [4] -0.023 | [8] -0.015 | [9] -0.027

PDE3B (UniProt Q13370)
inactive: [5] -0.088

PDE6D (UniProt O43924)
inactive: erlotinib -0.094 | [1] 0.055 | [5] -0.082 | [7] -0.102 | [2] 0.078 | [3] 0.004 | [4] 0.115 | [8] 0.417 | [9] 0.028

PAFAH2 (UniProt Q99487)
inactive: erlotinib -0.004 | [1] 0.138 | [7] -0.018 | [2] -0.144 | [3] -0.02 | [6] -0.008 | [4] 0.011 | [8] -0.017 | [9] 0.08

PCBP2 (UniProt F8VRH0)
inactive: erlotinib -0.011 | [1] 0.07 | [5] 0.016 | [7] -0.099 | [2] -0.26 | [3] -0.153 | [4] -0.04 | [8] -0.13 | [9] 0.113

PAF1 (UniProt Q8N7H5)
inactive: [5] -0.054 | [6] 0.015

PEX10 isoform 2 (UniProt O60683)
inactive: [1] -0.048 | [2] -0.085 | [4] 0.039 | [8] 0.019 | [9] 0.11

PDE2A (UniProt O00408)
inactive: erlotinib -0.055 | [5] -0.011 | [7] -0.034 | [2] 0.161 | [3] -0.099 | [6] 0.137 | [4] 0.113 | [8] -0.077 | [9] 0.184
active: [1] -0.521

PCNX1 (UniProt Q96RV3)
inactive: [5] 0.036 | [3] -0.006 | [8] -0.019 | [9] -0.041

PDE6C (UniProt P51160)
inactive: [1] 0.088 | [2] 0.255 | [3] 0.094 | [6] 0.101 | [4] 0.024 | [8] -0.324 | [9] -0.021

PAGE2 (UniProt Q7Z2X7)
inactive: erlotinib -0.045 | [1] -0.133 | [5] 0.132 | [7] 0.148 | [2] -0.019 | [3] 0.152 | [4] 0.144 | [8] -0.106 | [9] -0.047

PCNX3 (UniProt Q9H6A9)
inactive: erlotinib -0.096 | [7] -0.222

PCSK7 (UniProt Q16549)
inactive: erlotinib -0.082 | [7] -0.044

PAFAH1B1 (UniProt I3L3N5)
inactive: [1] -0.19 | [2] 0.258 | [3] 0.167 | [4] -0.08

PDE4DIP (UniProt E9PS60)
inactive: erlotinib 0.086 | [7] -0.175

PABPN1 (UniProt Q86U42)
inactive: [3] 0.156

PDCD4 (UniProt Q53EL6)
inactive: erlotinib 0.107 | [1] -0.041 | [5] 0.14 | [7] -0.051 | [2] 0.16 | [3] 0.145 | [6] 0.072 | [4] 0.108 | [8] 0.024 | [9] 0.027

PDXP (UniProt B1AHD3)
inactive: [5] 0.129

PAN2 (UniProt Q504Q3)
inactive: [3] 0.044

PACSIN3 (UniProt Q9UKS6)
inactive: erlotinib -0.085 | [5] -0.052 | [7] -0.063 | [6] -0.052

PAICS (UniProt D6RF62)
inactive: [1] -0.408 | [2] 0.437 | [6] -0.533 | [4] -0.268

2 entries picked at random from those above:
PDXP (UniProt B1AHD3)
inactive: [5] 0.129

PCBP2 (UniProt F8VRH0)
inactive: erlotinib -0.011 | [1] 0.07 | [5] 0.016 | [7] -0.099 | [2] -0.26 | [3] -0.153 | [4] -0.04 | [8] -0.13 | [9] 0.113

Continuation.

PARP16 isoform 3 (UniProt Q8N5Y8)
inactive: erlotinib 0.025 | [1] 0.049 | [5] -0.055 | [7] -0.018 | [2] -0.029 | [3] 0.102 | [4] -0.013 | [8] -0.026 | [9] 0.067

PALM (UniProt O75781)
inactive: erlotinib 0.067 | [7] 0.079

PCF11 (UniProt O94913)
inactive: [1] 0.04 | [2] -0.082 | [3] 0.111 | [6] -0.191 | [4] 0.083

PDIA3 (UniProt H7BZJ3)
inactive: erlotinib -0.071 | [1] -0.145 | [5] -0.076 | [7] -0.054 | [2] -0.128 | [3] -0.007 | [4] 0.071 | [8] 0.257 | [9] 0.172

PCMTD2 (UniProt Q9NV79)
inactive: [6] -0.087 | [8] -0.01 | [9] -0.081
